# From the supplement of paper PMC10849652
# The chains behind the UniProt entries cited, without tags or fusion partners. Where a name states a change or a piece, a line headed by the entry shows the natural chain unless it says otherwise.
# UniProt Q15642: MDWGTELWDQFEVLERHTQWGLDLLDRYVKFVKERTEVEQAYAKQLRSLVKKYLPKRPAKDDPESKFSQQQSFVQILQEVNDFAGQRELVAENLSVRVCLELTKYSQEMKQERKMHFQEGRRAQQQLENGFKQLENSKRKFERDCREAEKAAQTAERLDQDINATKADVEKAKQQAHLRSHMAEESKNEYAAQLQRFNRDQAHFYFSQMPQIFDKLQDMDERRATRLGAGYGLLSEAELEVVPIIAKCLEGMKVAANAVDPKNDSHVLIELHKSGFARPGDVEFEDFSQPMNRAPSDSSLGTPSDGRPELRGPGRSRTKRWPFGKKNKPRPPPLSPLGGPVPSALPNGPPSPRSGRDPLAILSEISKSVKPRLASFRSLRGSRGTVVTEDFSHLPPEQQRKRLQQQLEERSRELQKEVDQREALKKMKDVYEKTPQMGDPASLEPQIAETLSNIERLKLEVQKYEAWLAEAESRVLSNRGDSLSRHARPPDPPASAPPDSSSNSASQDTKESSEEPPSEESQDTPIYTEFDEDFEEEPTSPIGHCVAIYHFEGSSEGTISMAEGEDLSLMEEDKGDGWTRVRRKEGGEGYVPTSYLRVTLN
# UniProt Q96FX7: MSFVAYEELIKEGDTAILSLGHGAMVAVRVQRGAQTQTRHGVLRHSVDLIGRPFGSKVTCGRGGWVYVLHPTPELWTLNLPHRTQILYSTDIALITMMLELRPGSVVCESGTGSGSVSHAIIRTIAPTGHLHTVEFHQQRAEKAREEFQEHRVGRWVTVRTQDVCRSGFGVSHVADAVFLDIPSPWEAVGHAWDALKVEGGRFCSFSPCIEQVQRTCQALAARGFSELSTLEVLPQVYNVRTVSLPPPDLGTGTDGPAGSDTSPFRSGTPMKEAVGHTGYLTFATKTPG
# UniProt Q12815: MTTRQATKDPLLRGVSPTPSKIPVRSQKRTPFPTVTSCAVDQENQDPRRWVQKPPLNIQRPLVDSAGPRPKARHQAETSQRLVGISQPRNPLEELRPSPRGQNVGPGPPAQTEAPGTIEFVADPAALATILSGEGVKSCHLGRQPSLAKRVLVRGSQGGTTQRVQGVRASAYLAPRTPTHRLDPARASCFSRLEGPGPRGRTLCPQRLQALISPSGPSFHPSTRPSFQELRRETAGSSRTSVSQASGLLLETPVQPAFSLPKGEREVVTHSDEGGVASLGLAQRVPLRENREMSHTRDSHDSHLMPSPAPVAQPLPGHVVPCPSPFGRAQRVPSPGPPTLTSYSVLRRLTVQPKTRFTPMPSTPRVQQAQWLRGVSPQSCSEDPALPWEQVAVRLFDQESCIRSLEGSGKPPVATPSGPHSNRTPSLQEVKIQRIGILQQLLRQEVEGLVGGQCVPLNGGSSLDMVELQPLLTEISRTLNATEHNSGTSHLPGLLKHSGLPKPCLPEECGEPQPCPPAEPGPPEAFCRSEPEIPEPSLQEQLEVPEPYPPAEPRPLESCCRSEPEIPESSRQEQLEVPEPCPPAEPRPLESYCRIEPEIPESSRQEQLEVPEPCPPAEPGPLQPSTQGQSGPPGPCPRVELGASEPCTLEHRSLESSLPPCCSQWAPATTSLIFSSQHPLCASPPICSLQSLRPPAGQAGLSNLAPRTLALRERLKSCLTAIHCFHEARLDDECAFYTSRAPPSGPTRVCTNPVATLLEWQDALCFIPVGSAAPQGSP
# UniProt P48553, whole entry, looked up: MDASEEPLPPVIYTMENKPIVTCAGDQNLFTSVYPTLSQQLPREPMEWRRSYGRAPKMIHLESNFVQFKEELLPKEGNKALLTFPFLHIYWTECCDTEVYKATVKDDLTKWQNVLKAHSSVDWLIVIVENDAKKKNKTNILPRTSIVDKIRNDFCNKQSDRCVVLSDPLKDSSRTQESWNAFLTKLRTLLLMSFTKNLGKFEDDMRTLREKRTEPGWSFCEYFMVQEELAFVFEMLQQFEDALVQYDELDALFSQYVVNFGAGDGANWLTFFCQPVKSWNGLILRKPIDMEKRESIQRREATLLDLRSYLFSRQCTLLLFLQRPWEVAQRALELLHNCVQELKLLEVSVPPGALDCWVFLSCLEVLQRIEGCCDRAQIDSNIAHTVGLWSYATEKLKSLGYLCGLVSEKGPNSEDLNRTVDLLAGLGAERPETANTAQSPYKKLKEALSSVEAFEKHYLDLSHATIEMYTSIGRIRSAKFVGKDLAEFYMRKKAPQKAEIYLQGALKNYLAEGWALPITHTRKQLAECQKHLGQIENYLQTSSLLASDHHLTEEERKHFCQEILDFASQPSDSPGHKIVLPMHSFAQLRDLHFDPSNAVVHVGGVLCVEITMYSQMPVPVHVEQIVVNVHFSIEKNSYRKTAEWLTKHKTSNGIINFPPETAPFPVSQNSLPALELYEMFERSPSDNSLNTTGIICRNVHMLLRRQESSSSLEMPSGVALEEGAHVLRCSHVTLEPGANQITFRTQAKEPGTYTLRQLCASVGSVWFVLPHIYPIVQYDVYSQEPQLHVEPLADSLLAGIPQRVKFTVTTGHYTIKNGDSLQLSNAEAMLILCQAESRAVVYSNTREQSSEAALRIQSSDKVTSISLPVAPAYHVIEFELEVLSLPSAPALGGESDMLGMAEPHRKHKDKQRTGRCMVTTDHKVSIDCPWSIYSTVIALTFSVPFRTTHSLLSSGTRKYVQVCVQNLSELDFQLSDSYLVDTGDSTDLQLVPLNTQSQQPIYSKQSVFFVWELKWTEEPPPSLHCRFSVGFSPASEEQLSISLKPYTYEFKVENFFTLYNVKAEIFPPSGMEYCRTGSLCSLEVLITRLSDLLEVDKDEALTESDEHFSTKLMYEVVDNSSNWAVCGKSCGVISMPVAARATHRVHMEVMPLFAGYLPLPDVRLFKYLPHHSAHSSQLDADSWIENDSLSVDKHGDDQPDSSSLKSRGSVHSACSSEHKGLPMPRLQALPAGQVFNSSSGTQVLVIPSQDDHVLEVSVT
# UniProt P36406: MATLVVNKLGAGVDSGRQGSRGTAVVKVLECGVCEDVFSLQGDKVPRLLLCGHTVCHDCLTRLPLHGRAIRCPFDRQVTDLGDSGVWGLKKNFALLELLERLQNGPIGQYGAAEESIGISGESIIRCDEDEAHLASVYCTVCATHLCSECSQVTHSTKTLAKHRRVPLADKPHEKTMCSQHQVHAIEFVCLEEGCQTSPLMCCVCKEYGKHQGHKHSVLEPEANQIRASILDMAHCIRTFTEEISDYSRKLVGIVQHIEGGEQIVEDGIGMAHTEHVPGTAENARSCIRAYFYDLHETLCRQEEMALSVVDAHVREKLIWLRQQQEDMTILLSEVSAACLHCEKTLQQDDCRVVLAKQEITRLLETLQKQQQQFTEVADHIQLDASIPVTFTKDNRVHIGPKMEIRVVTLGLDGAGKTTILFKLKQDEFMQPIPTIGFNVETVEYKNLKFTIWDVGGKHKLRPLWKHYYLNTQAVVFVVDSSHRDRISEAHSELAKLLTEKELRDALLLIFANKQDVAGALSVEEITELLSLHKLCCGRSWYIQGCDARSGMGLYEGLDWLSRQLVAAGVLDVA
# UniProt Q96DX7: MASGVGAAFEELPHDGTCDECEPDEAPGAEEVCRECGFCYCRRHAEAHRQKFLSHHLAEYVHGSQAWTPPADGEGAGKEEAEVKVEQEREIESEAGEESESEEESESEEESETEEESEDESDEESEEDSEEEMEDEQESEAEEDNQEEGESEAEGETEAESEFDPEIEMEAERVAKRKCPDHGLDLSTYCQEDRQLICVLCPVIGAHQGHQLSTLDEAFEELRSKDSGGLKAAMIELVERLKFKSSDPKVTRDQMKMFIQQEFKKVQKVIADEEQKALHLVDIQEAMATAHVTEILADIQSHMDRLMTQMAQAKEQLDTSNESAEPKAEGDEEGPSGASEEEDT
# UniProt Q13114: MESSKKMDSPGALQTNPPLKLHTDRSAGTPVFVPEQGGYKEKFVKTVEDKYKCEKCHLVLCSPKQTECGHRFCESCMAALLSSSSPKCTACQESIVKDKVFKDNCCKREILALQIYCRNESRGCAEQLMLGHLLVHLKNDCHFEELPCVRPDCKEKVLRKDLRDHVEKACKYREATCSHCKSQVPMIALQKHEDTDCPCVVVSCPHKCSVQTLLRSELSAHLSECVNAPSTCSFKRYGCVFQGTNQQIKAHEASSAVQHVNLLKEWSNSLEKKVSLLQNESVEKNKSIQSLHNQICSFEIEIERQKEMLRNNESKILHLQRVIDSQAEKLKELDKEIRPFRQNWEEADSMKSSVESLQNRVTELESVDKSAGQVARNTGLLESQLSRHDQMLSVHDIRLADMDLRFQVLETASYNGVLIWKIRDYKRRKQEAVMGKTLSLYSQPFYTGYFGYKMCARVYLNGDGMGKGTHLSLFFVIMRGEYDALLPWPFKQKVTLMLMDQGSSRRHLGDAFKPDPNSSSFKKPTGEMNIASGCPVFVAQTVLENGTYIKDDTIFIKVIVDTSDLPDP
# UniProt Q92574: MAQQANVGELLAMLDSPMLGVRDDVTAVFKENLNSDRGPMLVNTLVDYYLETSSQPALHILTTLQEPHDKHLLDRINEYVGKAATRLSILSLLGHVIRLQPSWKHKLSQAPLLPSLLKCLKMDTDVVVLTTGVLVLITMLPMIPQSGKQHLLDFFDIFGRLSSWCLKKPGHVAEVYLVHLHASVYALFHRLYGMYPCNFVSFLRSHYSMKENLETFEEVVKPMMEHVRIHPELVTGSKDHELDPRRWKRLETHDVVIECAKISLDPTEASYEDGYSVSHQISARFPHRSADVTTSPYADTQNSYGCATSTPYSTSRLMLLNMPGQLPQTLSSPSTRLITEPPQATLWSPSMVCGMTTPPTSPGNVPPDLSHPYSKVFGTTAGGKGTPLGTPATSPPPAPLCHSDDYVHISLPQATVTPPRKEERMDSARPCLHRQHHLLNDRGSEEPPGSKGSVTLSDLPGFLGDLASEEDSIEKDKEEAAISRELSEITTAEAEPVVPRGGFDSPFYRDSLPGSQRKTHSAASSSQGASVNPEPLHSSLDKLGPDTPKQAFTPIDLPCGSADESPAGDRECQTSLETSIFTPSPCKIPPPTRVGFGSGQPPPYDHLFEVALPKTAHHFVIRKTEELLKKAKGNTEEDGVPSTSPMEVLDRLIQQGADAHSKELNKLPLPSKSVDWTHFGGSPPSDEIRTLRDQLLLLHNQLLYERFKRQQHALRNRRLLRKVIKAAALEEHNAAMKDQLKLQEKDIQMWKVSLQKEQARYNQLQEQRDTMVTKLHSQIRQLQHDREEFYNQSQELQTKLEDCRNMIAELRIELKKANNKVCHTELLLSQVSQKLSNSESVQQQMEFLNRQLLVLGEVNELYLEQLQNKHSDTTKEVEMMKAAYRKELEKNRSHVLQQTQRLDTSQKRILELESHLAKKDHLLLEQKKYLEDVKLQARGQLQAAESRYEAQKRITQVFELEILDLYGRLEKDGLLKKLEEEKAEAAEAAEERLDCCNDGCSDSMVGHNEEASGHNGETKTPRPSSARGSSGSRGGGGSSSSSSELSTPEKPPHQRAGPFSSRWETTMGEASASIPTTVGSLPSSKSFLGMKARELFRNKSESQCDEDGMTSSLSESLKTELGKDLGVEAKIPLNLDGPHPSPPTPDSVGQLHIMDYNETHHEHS
# UniProt P19474, whole entry, looked up: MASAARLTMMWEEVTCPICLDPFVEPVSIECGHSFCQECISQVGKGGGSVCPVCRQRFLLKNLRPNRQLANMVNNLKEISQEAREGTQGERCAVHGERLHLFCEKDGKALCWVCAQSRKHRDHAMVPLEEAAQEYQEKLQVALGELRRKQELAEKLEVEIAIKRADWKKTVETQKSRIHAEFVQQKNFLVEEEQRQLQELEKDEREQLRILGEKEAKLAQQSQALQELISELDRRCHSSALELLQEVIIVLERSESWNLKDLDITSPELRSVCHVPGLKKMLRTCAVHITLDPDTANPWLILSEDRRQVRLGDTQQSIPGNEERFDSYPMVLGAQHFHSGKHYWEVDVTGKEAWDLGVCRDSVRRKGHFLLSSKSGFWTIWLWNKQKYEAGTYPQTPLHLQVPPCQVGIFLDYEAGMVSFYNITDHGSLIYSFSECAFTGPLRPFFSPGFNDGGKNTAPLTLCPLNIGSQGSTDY
# UniProt Q15645: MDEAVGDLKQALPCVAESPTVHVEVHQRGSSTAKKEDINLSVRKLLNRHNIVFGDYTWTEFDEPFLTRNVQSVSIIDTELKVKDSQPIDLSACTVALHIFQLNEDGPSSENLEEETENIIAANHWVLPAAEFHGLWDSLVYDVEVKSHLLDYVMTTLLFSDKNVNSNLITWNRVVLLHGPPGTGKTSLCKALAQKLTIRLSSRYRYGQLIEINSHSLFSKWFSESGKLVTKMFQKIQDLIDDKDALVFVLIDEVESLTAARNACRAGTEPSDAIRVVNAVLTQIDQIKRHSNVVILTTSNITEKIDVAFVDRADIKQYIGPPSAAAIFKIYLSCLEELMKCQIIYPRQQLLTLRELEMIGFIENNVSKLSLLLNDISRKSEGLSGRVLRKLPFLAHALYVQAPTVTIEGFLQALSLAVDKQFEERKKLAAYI
# Some of the results follow.
# Assays:
# Assay in all cases: log2 fold change, soluble protein after heating vs DMSO (PISA); higher = thermal stabilisation; K562 lysate, 10 uM; active = over 0.2 and 3.5 SD of the protein, either way, in both replicates (recomputed)
# vemurafenib = compound: CCCS(=O)(=O)Nc1ccc(F)c(C(=O)c2c[nH]c3ncc(-c4ccc(Cl)cc4)cc23)c1F [vemurafenib]
# In short: (§1)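 The values are log-two fold changes in thermal stability compared with solvent controls and come from duplicates. They were obtained by TMTpro 16plex LC-MS/MS, with channel sums equalised, on the supernatant after 21,000xg for 90 min. That supernatant came from crude K562 extract at 1 mg/mL protein treated with 10 μM compound for 30 min, heated for 3 min across 48°C-58°C, pooled and brought to 0.5% NP-40 at 4°C.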
# [1] = compound: CCCS(=O)(=O)Nc1ccc(F)c(C(=O)c2c[nH]c3ncc(Cl)cc23)c1F
# In short: as §1
# barasertib = compound: CCN(CCCOc1ccc2c(Nc3cc(CC(=O)Nc4cccc(F)c4)[nH]n3)ncnc2c1)CCOP(=O)(O)O [barasertib]
# In short: as §1
# [2] = compound: CC[C@@H]1C(=O)N(C)c2cnc(Nc3ccc(C(=O)NC4CCN(C)CC4)cc3OC)nc2N1C1CCCC1
# In short: as §1
# volasertib = compound: CC[C@@H]1C(=O)N(C)c2cnc(Nc3ccc(C(=O)N[C@H]4CC[C@H](N5CCN(CC6CC6)CC5)CC4)cc3OC)nc2N1C(C)C [volasertib]
# In short: as §1
# [3] = compound: CCn1c(C(=O)N(C2CC2)C2CC2)cc2c3c(ncn3C)c(Nc3cc(C)n(C)n3)nc21
# In short: as §1
# [4] = compound: CCn1cc(-c2ccnc3[nH]c(-c4cccc(CN(C)C)c4)cc23)c(-c2ccc(NC(=O)N(C)C)cc2)n1
# In short: as §1
# [5] = compound: CN1CCC(CNc2ccc3ncc(-c4cccc(OC(F)(F)F)c4)n3n2)CC1
# In short: as §1
# saracatinib = compound: CN1CCN(CCOc2cc(OC3CCOCC3)c3c(Nc4c(Cl)ccc5c4OCO5)ncnc3c2)CC1 [saracatinib]
# In short: as §1
# sotrastaurin = compound: CN1CCN(c2nc(C3=C(c4c[nH]c5ccccc45)C(=O)NC3=O)c3ccccc3n2)CC1 [sotrastaurin]
# In short: as §1
# alvocidib = compound: CN1CC[C@H](c2c(O)cc(O)c3c(=O)cc(-c4ccccc4Cl)oc23)[C@H](O)C1 [alvocidib]
# In short: as §1
# Tubastatin A = compound: CN1CCc2c(c3ccccc3n2Cc2ccc(C(=O)NO)cc2)C1 [Tubastatin A]
# In short: as §1
# [6] = compound: CNC(=O)C1=CC=CC=C1NC2=NC(=NC=C2Cl)NC3=C(C=C(C=C3)N4CCOCC4)OC
# In short: as §1
# defactinib = compound: CNC(=O)c1ccc(Nc2ncc(C(F)(F)F)c(NCc3nccnc3N(C)S(C)(=O)=O)n2)cc1 [defactinib]
# In short: as §1
# [7] = compound: CNc1nc(-c2ccc3c(N)n[nH]c3c2)cc(N2C[C@@H](C(=O)NC3CCCCC3)CC[C@H]2C)n1
# In short: as §1
# encorafenib = compound: COC(=O)N[C@@H](C)CNc1nccc(-c2cn(C(C)C)nc2-c2cc(Cl)cc(NS(C)(=O)=O)c2F)n1 [encorafenib]
# In short: as §1
# [8] = compound: COC(=O)[C@H](CCSC)NC(=O)C1=C(C=C(C=C1)NC[C@H](CS)N)C2=CC=CC=C2
# In short: as §1
# alisertib = compound: COc1cc(Nc2ncc3c(n2)-c2ccc(Cl)cc2C(c2c(F)cccc2OC)=NC3)ccc1C(=O)O [alisertib]
# In short: as §1
# [9] = compound: COc1cc2nc(-c3cc(F)ccc3O)nc(N[C@@H]3CNC[C@H]3C(C)(C)O)c2cc1OC
# In short: as §1
# gefitinib = compound: COc1cc2ncnc(Nc3ccc(F)c(Cl)c3)c2cc1OCCCN1CCOCC1 [gefitinib]
# In short: as §1
Target,log2 fold change (vemurafenib),log2 fold change [1],log2 fold change (barasertib),log2 fold change [2],log2 fold change (volasertib),log2 fold change [3],log2 fold change [4],log2 fold change [5],log2 fold change (saracatinib),log2 fold change (sotrastaurin),log2 fold change (alvocidib),log2 fold change (Tubastatin A),log2 fold change [6],log2 fold change (defactinib),log2 fold change [7],log2 fold change (encorafenib),log2 fold change [8],log2 fold change (alisertib),log2 fold change [9],log2 fold change (gefitinib)
TTC7B isoform 2 (UniProt Q86TV6),inactive: -0.014,inactive: 0.04,inactive: 0.08,inactive: 0.167,inactive: -0.043,inactive: 0.035,inactive: 0.166,inactive: 0.165,inactive: 0.014,inactive: 0.034,inactive: 0.061,inactive: -0.162,inactive: 0.1,inactive: 0.04,inactive: 0.076,inactive: 0.041,inactive: -0.04,inactive: 0.012,inactive: 0,inactive: -0.087
TRIP10 isoform 2 (UniProt Q15642),inactive: 0.137,inactive: -0.167,inactive: -0.045,inactive: -0.083,inactive: -0.045,inactive: -0.002,inactive: -0.067,inactive: 0.072,inactive: -0.059,inactive: 0,inactive: -0.148,inactive: -0.056,inactive: 0.081,inactive: 0.003,inactive: 0.017,inactive: 0.15,inactive: -0.017,inactive: 0.101,inactive: -0.036,inactive: -0.132
TTC33 (UniProt Q6PID6),inactive: 0.007,inactive: -0.025,inactive: 0.042,inactive: 0.005,inactive: -0.023,inactive: -0.001,inactive: 0.107,inactive: -0.047,inactive: 0.03,inactive: -0.019,inactive: 0.043,inactive: -0.038,inactive: 0.1,inactive: -0.041,inactive: -0.024,inactive: 0.034,inactive: 0.036,inactive: -0.054,inactive: 0.001,inactive: -0.399
TRMT61A (UniProt Q96FX7),inactive: -0.004,inactive: 0.003,inactive: 0.025,inactive: 0.068,inactive: -0.068,inactive: -0.077,inactive: 0.006,inactive: 0.034,inactive: -0.028,inactive: -0.045,inactive: 0.03,inactive: 0.075,inactive: 0.022,inactive: 0.032,inactive: -0.036,inactive: -0.022,inactive: 0.057,inactive: -0.02,inactive: -0.06,inactive: -0.085
TROAP (UniProt Q12815),inactive: 0.113,inactive: 0.146,inactive: 0.053,inactive: 0.063,inactive: 0.31,inactive: 0.043,inactive: -0.03,inactive: 0.042,inactive: 0.014,inactive: 0.002,inactive: -0.042,inactive: -0.043,inactive: 0.022,inactive: 0.021,inactive: 0.076,inactive: -0.193,inactive: 0.217,inactive: -0.09,inactive: -0.171,inactive: -0.015
TRMT2A (UniProt Q8IZ69),inactive: -0.028,inactive: 0.004,inactive: 0.016,inactive: -0.019,inactive: -0.045,inactive: 0.005,inactive: -0.016,inactive: 0.009,inactive: -0.007,inactive: 0.002,inactive: -0.014,inactive: -0.144,inactive: 0.019,inactive: 0.041,inactive: -0.018,inactive: 0.019,inactive: 0.098,inactive: 0.043,inactive: 0.007,inactive: 0.007
TRAPPC10 (UniProt P48553),inactive: 0.022,inactive: 0.009,inactive: 0.027,inactive: -0.063,inactive: -0.052,inactive: 0.022,inactive: -0.061,inactive: 0.071,inactive: 0.016,inactive: -0.039,inactive: -0.034,inactive: -0.074,inactive: 0.01,inactive: -0.034,inactive: 0.011,inactive: 0.009,inactive: -0.047,inactive: 0.015,inactive: -0.001,inactive: -0.029
TRIM23 (UniProt P36406),inactive: 0.077,inactive: -0.038,inactive: 0.119,inactive: 0.115,inactive: -0.03,inactive: 0.316,inactive: -0.28,inactive: 0.073,inactive: 0.096,inactive: 0.01,inactive: -0.071,inactive: 0.023,inactive: 0.017,inactive: -0.008,inactive: 0.354,inactive: -0.063,inactive: 0.06,inactive: -0.014,inactive: 0.154,inactive: 0.057
TSC22D1 (UniProt Q15714),inactive: -0.009,inactive: -0.01,inactive: -0.099,inactive: 0.021,inactive: 0.02,inactive: 0.017,inactive: -0.097,inactive: 0.005,inactive: 0.01,inactive: 0.032,inactive: -0.03,inactive: 0.006,inactive: -0.096,inactive: -0.05,inactive: 0.014,inactive: 0.02,inactive: 0.003,inactive: -0.002,inactive: 0.017,inactive: -0.007
TRIM44 (UniProt Q96DX7),inactive: -0.085,inactive: 0.095,inactive: 0.066,inactive: -0.075,inactive: -0.014,inactive: 0.003,inactive: 0.146,inactive: -0.031,inactive: 0.023,inactive: 0.044,inactive: 0,inactive: -0.013,inactive: 0.057,inactive: -0.045,inactive: 0.04,inactive: -0.047,inactive: -0.034,inactive: 0.041,inactive: -0.121,inactive: 0.088
TRNAU1AP (UniProt Q9NX07),active: -0.335,inactive: 0.007,inactive: 0.059,inactive: 0.062,inactive: -0.041,inactive: 0.04,inactive: -0.264,inactive: 0.031,inactive: 0.027,inactive: -0.027,inactive: -0.059,inactive: -0.08,inactive: 0.015,inactive: -0.192,inactive: -0.039,inactive: 0.045,inactive: 0.034,inactive: 0.098,inactive: -0.007,inactive: -0.019
TRIM65 (UniProt Q6PJ69),inactive: 0.025,inactive: 0.085,inactive: 0.013,inactive: 0.026,inactive: -0.076,inactive: 0,inactive: -0.056,inactive: 0.008,inactive: -0.022,inactive: 0.022,inactive: -0.11,inactive: 0.025,inactive: -0.044,inactive: 0.024,inactive: -0.014,inactive: -0.002,inactive: 0.089,inactive: -0.02,inactive: 0.023,inactive: 0.003
TRAF3 (UniProt Q13114),inactive: 0.003,inactive: 0.118,inactive: 0.107,inactive: 0.013,inactive: 0.012,inactive: -0.054,inactive: -0.302,inactive: 0.092,inactive: 0,inactive: 0.168,inactive: -0.01,inactive: 0.061,inactive: 0.084,inactive: -0.149,inactive: 0.141,inactive: 0.076,inactive: -0.055,inactive: -0.15,inactive: 0.013,inactive: 0.102
TSC1 (UniProt Q92574),inactive: -0.118,inactive: 0.111,inactive: 0.095,inactive: -0.008,inactive: -0.08,inactive: -0.031,inactive: 0.112,inactive: 0.087,inactive: -0.046,inactive: -0.011,inactive: -0.034,inactive: -0.072,inactive: 0.043,inactive: 0.046,inactive: 0.177,inactive: 0.025,inactive: -0.018,inactive: 0.005,inactive: -0.04,inactive: -0.037
TRIM21 (UniProt P19474),inactive: -0.024,inactive: 0.03,inactive: 0.065,inactive: -0.164,inactive: -0.116,inactive: 0.514,inactive: 0.25,inactive: -0.027,inactive: -0.05,inactive: -0.025,inactive: 0.153,inactive: 0.1,inactive: -0.048,inactive: 0.047,inactive: -0.005,inactive: 0.005,inactive: 0.254,inactive: -0.1,inactive: 0.021,inactive: 0.029
TRIP13 (UniProt Q15645),inactive: -0.036,inactive: 0,inactive: 0.033,inactive: -0.083,inactive: -0.089,inactive: 0.034,inactive: 0.003,inactive: -0.019,inactive: 0.008,inactive: 0.05,inactive: 0.018,inactive: -0.159,inactive: 0.014,inactive: 0.07,inactive: -0.049,inactive: 0.03,inactive: 0.114,inactive: 0,inactive: 0.014,inactive: -0.036

# Random excerpt: two entries already listed.
Target,log2 fold change (vemurafenib),log2 fold change [1],log2 fold change (barasertib),log2 fold change [2],log2 fold change (volasertib),log2 fold change [3],log2 fold change [4],log2 fold change [5],log2 fold change (saracatinib),log2 fold change (sotrastaurin),log2 fold change (alvocidib),log2 fold change (Tubastatin A),log2 fold change [6],log2 fold change (defactinib),log2 fold change [7],log2 fold change (encorafenib),log2 fold change [8],log2 fold change (alisertib),log2 fold change [9],log2 fold change (gefitinib)
TTC33 (UniProt Q6PID6),inactive: 0.007,inactive: -0.025,inactive: 0.042,inactive: 0.005,inactive: -0.023,inactive: -0.001,inactive: 0.107,inactive: -0.047,inactive: 0.03,inactive: -0.019,inactive: 0.043,inactive: -0.038,inactive: 0.1,inactive: -0.041,inactive: -0.024,inactive: 0.034,inactive: 0.036,inactive: -0.054,inactive: 0.001,inactive: -0.399
TTC7B isoform 2 (UniProt Q86TV6),inactive: -0.014,inactive: 0.04,inactive: 0.08,inactive: 0.167,inactive: -0.043,inactive: 0.035,inactive: 0.166,inactive: 0.165,inactive: 0.014,inactive: 0.034,inactive: 0.061,inactive: -0.162,inactive: 0.1,inactive: 0.04,inactive: 0.076,inactive: 0.041,inactive: -0.04,inactive: 0.012,inactive: 0,inactive: -0.087
